{"source": "the supplement of paper PMC8256030", "key": {"[1]": {"system": "SARS-CoV-2 -1 PRF reporter mCherry-FSE-GFP(-1)", "assay": "mCherry (red) intensity as percent of control; higher = higher upstream reporter expression", "settings": "10 µM; 24 h; HEK293T"}, "[2]": {"system": "SARS-CoV-2 -1 PRF reporter mCherry-FSE-GFP(-1)", "assay": "percent effect, decrease of GFP/mCherry ratio (-1 PRF reporter) relative to controls; higher = stronger frameshift inhibition", "settings": "10 µM; 24 h; HEK293T"}}, "note": "“And” between values parts separate entries of the source, which are not always exact repeats. Identical values can stand only once. Counter-ions that a name gives are not always drawn. This is one part of the list. Repeats in this data set agree poorly, so a single value says little.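 HEK293T cells were given each compound shortly before transfection with a reporter in which red mCherry is followed by the SARS-CoV-2 frameshift element and then GFP in the −1 frame, so GFP appears only after frameshifting.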", "data": [{"smiles": "COc1ccc(/C=C/C(=O)Nc2ccccc2C(=O)O)cc1OC", "values": [{"measurement": "mCherry", "setting": "[1]", "value": 107, "unit": "%"}, {"measurement": "percent effect", "setting": "[2]", "value": -0.424, "unit": "%"}]}, {"smiles": "C=CCc1ccccc1OCC(O)CNC(C)C", "note": "(stereo not drawn) [alprenolol]", "values": [{"measurement": "mCherry", "setting": "[1]", "value": 103, "unit": "%"}, {"measurement": "percent effect", "setting": "[2]", "value": -2.92, "unit": "%"}]}, {"smiles": "CCC[C@@]1(CCc2ccccc2)CC(O)=C([C@H](CC)c2cccc(NS(=O)(=O)c3ccc(C(F)(F)F)cn3)c2)C(=O)O1", "note": "[tipranavir]", "values": [{"measurement": "mCherry", "setting": "[1]", "value": 94.5, "unit": "%"}, {"measurement": "percent effect", "setting": "[2]", "value": 0.566, "unit": "%"}]}, {"smiles": "O=C(O)c1cc(O)c2c(c1)C(C1c3cc(C(=O)O)cc(O)c3C(=O)c3c(OC4OC(CO)C(O)C(O)C4O)cccc31)c1cccc(OC3OC(CO)C(O)C(O)C3O)c1C2=O", "note": "(stereo not drawn)", "values": [{"measurement": "mCherry", "setting": "[1]", "value": 104, "unit": "%"}, {"measurement": "percent effect", "setting": "[2]", "value": -0.338, "unit": "%"}]}, {"smiles": "CC(C)(C)NC[C@H](O)COc1nsnc1N1CCOCC1", "note": "[(S)-Timolol maleate]", "values": [{"measurement": "mCherry", "setting": "[1]", "value": 94.6, "unit": "%"}, {"measurement": "percent effect", "setting": "[2]", "value": 2.92, "unit": "%"}]}, {"smiles": "O=C1NC(=O)C(Cc2ccc3cc(OCc4ccccc4F)ccc3c2)S1", "note": "(stereo not drawn) [netoglitazone]", "values": [{"measurement": "mCherry", "setting": "[1]", "value": 93.6, "unit": "%"}, {"measurement": "percent effect", "setting": "[2]", "value": -4.5, "unit": "%"}]}, {"smiles": "C/N=C(/NC)NCc1ccc(OC)cc1", "note": "[meobentine]", "values": [{"measurement": "mCherry", "setting": "[1]", "value": 101, "unit": "%"}, {"measurement": "percent effect", "setting": "[2]", "value": -3.47, "unit": "%"}]}, {"smiles": "O=c1cc(CN2CCOCC2)c2ccc(O)cc2o1", "note": "[oxazorone]", "values": [{"measurement": "mCherry", "setting": "[1]", "value": 97.1, "unit": "%"}, {"measurement": "percent effect", "setting": "[2]", "value": -9.24, "unit": "%"}]}, {"smiles": "Cc1ccc(S(=O)(=O)NC(=O)NN2CCCCCC2)cc1", "note": "[tolazamide]", "values": [{"measurement": "mCherry", "setting": "[1]", "value": "84% and 106%"}, {"measurement": "percent effect", "setting": "[2]", "value": "2.45% and -11.4%"}]}, {"smiles": "NC(Cc1c[nH]c2ccc(O)cc12)C(=O)O", "note": "(stereo not drawn)", "values": [{"measurement": "mCherry", "setting": "[1]", "value": 123, "unit": "%"}, {"measurement": "percent effect", "setting": "[2]", "value": -7.45, "unit": "%"}]}, {"smiles": "NCCc1cc[nH]n1", "values": [{"measurement": "mCherry", "setting": "[1]", "value": 112, "unit": "%"}, {"measurement": "percent effect", "setting": "[2]", "value": -2.2, "unit": "%"}]}, {"smiles": "CC[C@H](C)[C@H](N)C1=N[C@H](C(=O)N[C@@H](CC(C)C)C(=O)N[C@H](CCC(=O)O)C(=O)N[C@H](C(=O)N[C@H]2CCCCNC(=O)[C@H](CC(N)=O)NC(=O)[C@@H](CC(=O)O)NC(=O)[C@H](Cc3cnc[nH]3)NC(=O)[C@@H](Cc3ccccc3)NC(=O)[C@H]([C@@H](C)CC)NC(=O)[C@@H](CCCN)NC2=O)[C@@H](C)CC)CS1", "values": [{"measurement": "mCherry", "setting": "[1]", "value": 70.9, "unit": "%"}, {"measurement": "percent effect", "setting": "[2]", "value": -2.1, "unit": "%"}]}, {"smiles": "O=c1[nH]c2cc(Cl)c(Cl)c([N+](=O)[O-])c2[nH]c1=O", "note": "[licostinel]", "values": [{"measurement": "mCherry", "setting": "[1]", "value": 87.6, "unit": "%"}, {"measurement": "percent effect", "setting": "[2]", "value": -0.521, "unit": "%"}]}, {"smiles": "CC1(C)C[C@@H]1C(=O)N/C(=C\\CCCCSC[C@H](N)C(=O)O)C(=O)O", "note": "[cilastatin]", "values": [{"measurement": "mCherry", "setting": "[1]", "value": 92.3, "unit": "%"}, {"measurement": "percent effect", "setting": "[2]", "value": 4.24, "unit": "%"}]}, {"smiles": "O=C(NC(Cc1cc(=O)[nH]c2ccccc12)C(=O)O)c1ccc(Cl)cc1", "note": "(stereo not drawn) [rebamipide]", "values": [{"measurement": "mCherry", "setting": "[1]", "value": "105% and 97.9%"}, {"measurement": "percent effect", "setting": "[2]", "value": "-4.32% and -1.54%"}]}, {"smiles": "CCN(CC)CCOC1(c2ccc(Cl)cc2)CCCCC1", "note": "[clofenciclan]", "values": [{"measurement": "mCherry", "setting": "[1]", "value": 72.3, "unit": "%"}, {"measurement": "percent effect", "setting": "[2]", "value": 3.3, "unit": "%"}]}, {"smiles": "CCCCC[C@H](O)/C=C/[C@@H]1[C@@H](C/C=C\\CCCC(=O)O)[C@@H](O)C[C@H]1O", "note": "[Dinoprost]", "values": [{"measurement": "mCherry", "setting": "[1]", "value": 76.4, "unit": "%"}, {"measurement": "percent effect", "setting": "[2]", "value": 1.71, "unit": "%"}]}, {"smiles": "Cc1oc(-c2ccccc2)nc1CCC(=O)c1ccc(CC2SC(=O)NC2=O)cc1", "note": "(stereo not drawn) [darglitazone]", "values": [{"measurement": "mCherry", "setting": "[1]", "value": 108, "unit": "%"}, {"measurement": "percent effect", "setting": "[2]", "value": -4.21, "unit": "%"}]}, {"smiles": "C[C@@H](O)[C@H]1C(=O)N2C(C(=O)O)=C(S[C@@H]3CN[C@H](C(=O)Nc4cccc(C(=O)O)c4)C3)[C@H](C)[C@H]12", "note": "[ertapenem]", "values": [{"measurement": "mCherry", "setting": "[1]", "value": 106, "unit": "%"}, {"measurement": "percent effect", "setting": "[2]", "value": 2.17, "unit": "%"}]}, {"smiles": "CCN(CC)c1nc(=NN)nc(N(CC)CC)[nH]1", "note": "[meladrazine]", "values": [{"measurement": "mCherry", "setting": "[1]", "value": 92.7, "unit": "%"}, {"measurement": "percent effect", "setting": "[2]", "value": -2.13, "unit": "%"}]}, {"smiles": "CN1CCc2c(c3ccccc3n2Cc2ccccc2)C1", "values": [{"measurement": "mCherry", "setting": "[1]", "value": 108, "unit": "%"}, {"measurement": "percent effect", "setting": "[2]", "value": 1.01, "unit": "%"}]}, {"smiles": "CCCC(=O)O[C@]1(C(=O)CO)CC[C@H]2[C@@H]3CCC4=CC(=O)CC[C@]4(C)[C@H]3[C@@H](O)C[C@@]21C", "values": [{"measurement": "mCherry", "setting": "[1]", "value": 107, "unit": "%"}, {"measurement": "percent effect", "setting": "[2]", "value": -4.76, "unit": "%"}]}, {"smiles": "CC(=O)[C@H]1CC[C@H]2[C@@H]3C=CC4=CC(=O)CC[C@@]4(C)[C@@H]3CC[C@]12C", "note": "[dydrogesterone]", "values": [{"measurement": "mCherry", "setting": "[1]", "value": 93.7, "unit": "%"}, {"measurement": "percent effect", "setting": "[2]", "value": -1.97, "unit": "%"}]}, {"smiles": "CCC(=O)O[C@]1(C(=O)CCl)[C@@H](C)C[C@H]2[C@@H]3C[C@H](F)C4=CC(=O)C=C[C@]4(C)[C@@]3(F)[C@@H](O)C[C@@]21C", "note": "[Ultravate]", "values": [{"measurement": "mCherry", "setting": "[1]", "value": 106, "unit": "%"}, {"measurement": "percent effect", "setting": "[2]", "value": -2.28, "unit": "%"}]}, {"smiles": "NC(=O)N/N=C/c1ccc([N+](=O)[O-])o1", "values": [{"measurement": "mCherry", "setting": "[1]", "value": 78.8, "unit": "%"}, {"measurement": "percent effect", "setting": "[2]", "value": -4.27, "unit": "%"}]}, {"smiles": "CCc1c(C)[nH]c2c1C(=O)C(CN1CCOCC1)CC2", "note": "(stereo not drawn) [molindone]", "values": [{"measurement": "mCherry", "setting": "[1]", "value": 104, "unit": "%"}, {"measurement": "percent effect", "setting": "[2]", "value": -11.7, "unit": "%"}]}, {"smiles": "O=c1c2c(c1=O)N(CCP(=O)(O)O)CCCN2", "note": "[perzinfotel]", "values": [{"measurement": "mCherry", "setting": "[1]", "value": 96.7, "unit": "%"}, {"measurement": "percent effect", "setting": "[2]", "value": -8.03, "unit": "%"}]}, {"smiles": "Nc1ncnc2c1ncn2[C@@H]1O[C@H](CO)[C@@H](O)[C@@H]1O", "note": "[vidarabine]", "values": [{"measurement": "mCherry", "setting": "[1]", "value": "92.8% and 82.8%"}, {"measurement": "percent effect", "setting": "[2]", "value": "-2.03% and 1.13%"}]}, {"smiles": "C[C@@H](c1nc(-c2ccc(C#N)cc2)cs1)[C@](O)(Cn1cncn1)c1cc(F)ccc1F", "note": "[isavuconazole]", "values": [{"measurement": "mCherry", "setting": "[1]", "value": 86.2, "unit": "%"}, {"measurement": "percent effect", "setting": "[2]", "value": -4.59, "unit": "%"}]}, {"smiles": "CCC1=C[C@@H]2CN(C1)Cc1c([nH]c3ccccc13)[C@@](C(=O)OC)(c1cc3c(cc1OC)N(C)[C@H]1[C@@](O)(C(=O)OC)[C@H](OC(C)=O)[C@]4(CC)C=CCN5CC[C@]31[C@@H]54)C2", "note": "[Vinorelbine]", "values": [{"measurement": "mCherry", "setting": "[1]", "value": 23.9, "unit": "%"}, {"measurement": "percent effect", "setting": "[2]", "value": -4.33, "unit": "%"}]}, {"smiles": "CC(=O)OCC(=O)[C@@]1(O)CC[C@H]2[C@@H]3CCC4=CC(=O)CC[C@]4(C)[C@H]3[C@@H](O)C[C@@]21C", "values": [{"measurement": "mCherry", "setting": "[1]", "value": 111, "unit": "%"}, {"measurement": "percent effect", "setting": "[2]", "value": -13.6, "unit": "%"}]}, {"smiles": "O=NN(CCCl)C(=O)NC1CCCCC1", "note": "[lomustine]", "values": [{"measurement": "mCherry", "setting": "[1]", "value": "82.2% and 75%"}, {"measurement": "percent effect", "setting": "[2]", "value": "-0.926% and -7.35%"}]}, {"smiles": "N[C@@H](Cn1ccc(=O)c(O)c1)C(=O)O", "values": [{"measurement": "mCherry", "setting": "[1]", "value": "126% and 141%"}, {"measurement": "percent effect", "setting": "[2]", "value": "-5.48% and 1.23%"}]}, {"smiles": "O=C1c2c(O)cccc2C(C2OC(CO)C(O)C(O)C2O)c2cc(CO)cc(O)c21", "note": "(stereo not drawn)", "values": [{"measurement": "mCherry", "setting": "[1]", "value": 94.8, "unit": "%"}, {"measurement": "percent effect", "setting": "[2]", "value": 0.705, "unit": "%"}]}]}
